Measured values published in the supplement of paper PMC12823440, “Inhibitors supercharge kinase turnover through native proteolytic circuits” (Nature, 2025).
Structures can show the parent of a compound that is named as a salt. The list shows a part of the results. The calls rarely recur for the same compound in another form.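 In K562 cells expressing nanoluciferase-fused kinases, luminescence was recorded at 4 h intervals between 2 and 18 h, normalized as percent of control with DMSO at 100% and a positive control at 0%. A significant (2 sigma) signal drop marks a time point as decreased. The authors' rule for a hit is not shown and takes in more than the number of time points.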

By UniProt entry, the sequences of proteins in these tests, tags left out. Where a name states a change or a piece, a line headed by the entry shows the natural chain unless it says otherwise.
UniProt P06241, whole entry, looked up: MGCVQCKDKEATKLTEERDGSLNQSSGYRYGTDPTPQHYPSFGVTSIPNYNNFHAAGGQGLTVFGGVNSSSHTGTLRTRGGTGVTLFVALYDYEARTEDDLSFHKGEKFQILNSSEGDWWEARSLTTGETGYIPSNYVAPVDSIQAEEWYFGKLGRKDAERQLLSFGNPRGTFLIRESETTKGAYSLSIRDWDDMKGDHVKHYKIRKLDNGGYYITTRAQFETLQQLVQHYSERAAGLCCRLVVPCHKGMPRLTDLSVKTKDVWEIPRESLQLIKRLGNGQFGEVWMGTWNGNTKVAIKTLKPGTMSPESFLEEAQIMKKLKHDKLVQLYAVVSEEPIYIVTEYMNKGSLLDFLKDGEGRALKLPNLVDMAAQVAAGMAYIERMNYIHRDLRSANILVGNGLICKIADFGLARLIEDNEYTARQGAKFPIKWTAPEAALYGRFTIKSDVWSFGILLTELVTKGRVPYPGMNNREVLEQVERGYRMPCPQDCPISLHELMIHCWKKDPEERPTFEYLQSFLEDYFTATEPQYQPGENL
UniProt P49840: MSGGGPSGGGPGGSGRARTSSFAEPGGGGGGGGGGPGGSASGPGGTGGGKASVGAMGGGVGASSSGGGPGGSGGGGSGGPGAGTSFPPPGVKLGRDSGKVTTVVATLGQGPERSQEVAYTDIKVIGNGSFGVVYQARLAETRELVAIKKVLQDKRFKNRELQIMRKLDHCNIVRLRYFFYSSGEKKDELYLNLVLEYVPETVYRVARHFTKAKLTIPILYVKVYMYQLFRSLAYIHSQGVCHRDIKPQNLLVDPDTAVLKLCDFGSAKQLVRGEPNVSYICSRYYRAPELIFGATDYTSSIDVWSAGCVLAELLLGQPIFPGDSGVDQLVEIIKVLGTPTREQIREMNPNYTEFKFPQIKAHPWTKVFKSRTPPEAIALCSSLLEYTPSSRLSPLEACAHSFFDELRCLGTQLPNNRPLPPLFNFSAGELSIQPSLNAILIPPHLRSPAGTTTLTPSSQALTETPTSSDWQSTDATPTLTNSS
UniProt Q9Y616: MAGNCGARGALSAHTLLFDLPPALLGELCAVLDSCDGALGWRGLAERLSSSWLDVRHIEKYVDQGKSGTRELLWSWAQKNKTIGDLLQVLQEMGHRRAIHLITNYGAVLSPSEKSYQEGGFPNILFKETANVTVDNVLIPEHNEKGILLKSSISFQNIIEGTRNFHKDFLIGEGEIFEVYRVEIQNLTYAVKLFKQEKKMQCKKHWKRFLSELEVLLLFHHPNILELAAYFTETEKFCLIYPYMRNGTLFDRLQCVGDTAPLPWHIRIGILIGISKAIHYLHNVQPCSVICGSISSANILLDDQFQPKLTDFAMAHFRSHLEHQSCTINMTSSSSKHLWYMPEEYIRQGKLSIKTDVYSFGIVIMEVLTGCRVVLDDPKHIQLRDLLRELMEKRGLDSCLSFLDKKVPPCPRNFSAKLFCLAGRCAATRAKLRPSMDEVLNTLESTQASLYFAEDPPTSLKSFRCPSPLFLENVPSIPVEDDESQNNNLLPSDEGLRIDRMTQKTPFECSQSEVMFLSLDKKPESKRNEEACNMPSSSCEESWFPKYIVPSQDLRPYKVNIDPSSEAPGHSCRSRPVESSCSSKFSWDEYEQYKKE
UniProt P23458: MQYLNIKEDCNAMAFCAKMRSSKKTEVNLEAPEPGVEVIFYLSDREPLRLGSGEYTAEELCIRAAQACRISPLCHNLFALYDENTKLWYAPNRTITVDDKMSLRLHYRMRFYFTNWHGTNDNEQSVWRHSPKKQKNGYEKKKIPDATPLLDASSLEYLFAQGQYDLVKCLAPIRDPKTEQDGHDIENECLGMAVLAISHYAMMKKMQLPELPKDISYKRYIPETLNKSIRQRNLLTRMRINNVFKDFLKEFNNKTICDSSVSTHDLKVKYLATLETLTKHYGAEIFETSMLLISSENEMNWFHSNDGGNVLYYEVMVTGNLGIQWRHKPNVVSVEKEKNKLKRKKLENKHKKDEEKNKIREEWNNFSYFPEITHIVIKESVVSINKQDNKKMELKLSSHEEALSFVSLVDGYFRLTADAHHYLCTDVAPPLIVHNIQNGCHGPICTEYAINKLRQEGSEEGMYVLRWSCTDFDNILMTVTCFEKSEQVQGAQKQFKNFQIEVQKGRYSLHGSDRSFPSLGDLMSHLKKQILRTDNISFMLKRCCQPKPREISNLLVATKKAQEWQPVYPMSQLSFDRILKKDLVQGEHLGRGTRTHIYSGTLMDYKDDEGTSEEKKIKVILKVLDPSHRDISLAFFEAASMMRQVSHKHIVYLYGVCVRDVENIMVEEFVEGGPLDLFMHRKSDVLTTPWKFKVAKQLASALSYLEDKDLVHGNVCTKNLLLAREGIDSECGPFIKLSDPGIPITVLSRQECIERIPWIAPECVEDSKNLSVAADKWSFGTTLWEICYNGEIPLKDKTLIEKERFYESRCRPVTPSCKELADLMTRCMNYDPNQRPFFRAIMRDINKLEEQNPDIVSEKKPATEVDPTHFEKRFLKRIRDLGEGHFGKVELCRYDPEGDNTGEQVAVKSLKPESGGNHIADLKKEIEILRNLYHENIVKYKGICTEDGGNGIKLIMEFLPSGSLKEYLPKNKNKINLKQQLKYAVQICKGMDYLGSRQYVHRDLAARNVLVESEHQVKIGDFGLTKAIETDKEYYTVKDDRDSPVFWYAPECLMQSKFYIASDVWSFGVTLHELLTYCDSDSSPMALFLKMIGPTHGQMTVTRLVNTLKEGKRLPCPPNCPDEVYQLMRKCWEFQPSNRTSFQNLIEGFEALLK
UniProt P53667: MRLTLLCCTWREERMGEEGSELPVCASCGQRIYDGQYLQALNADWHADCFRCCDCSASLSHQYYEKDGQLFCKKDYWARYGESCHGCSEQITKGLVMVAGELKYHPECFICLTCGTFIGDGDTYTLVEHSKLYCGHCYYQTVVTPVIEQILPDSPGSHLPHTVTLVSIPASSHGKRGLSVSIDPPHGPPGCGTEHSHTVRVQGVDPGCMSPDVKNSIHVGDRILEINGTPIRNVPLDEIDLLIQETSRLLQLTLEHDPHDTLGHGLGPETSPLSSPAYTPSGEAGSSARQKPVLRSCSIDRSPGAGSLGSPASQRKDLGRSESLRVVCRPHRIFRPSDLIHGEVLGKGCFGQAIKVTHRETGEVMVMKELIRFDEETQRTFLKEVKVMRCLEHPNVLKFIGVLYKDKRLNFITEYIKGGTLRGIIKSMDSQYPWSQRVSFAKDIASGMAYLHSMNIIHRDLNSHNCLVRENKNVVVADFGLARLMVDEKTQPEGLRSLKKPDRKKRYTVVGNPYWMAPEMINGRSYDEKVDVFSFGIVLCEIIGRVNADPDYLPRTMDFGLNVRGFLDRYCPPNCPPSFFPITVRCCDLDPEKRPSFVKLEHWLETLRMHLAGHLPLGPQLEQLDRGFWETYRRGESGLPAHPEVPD
UniProt P53671: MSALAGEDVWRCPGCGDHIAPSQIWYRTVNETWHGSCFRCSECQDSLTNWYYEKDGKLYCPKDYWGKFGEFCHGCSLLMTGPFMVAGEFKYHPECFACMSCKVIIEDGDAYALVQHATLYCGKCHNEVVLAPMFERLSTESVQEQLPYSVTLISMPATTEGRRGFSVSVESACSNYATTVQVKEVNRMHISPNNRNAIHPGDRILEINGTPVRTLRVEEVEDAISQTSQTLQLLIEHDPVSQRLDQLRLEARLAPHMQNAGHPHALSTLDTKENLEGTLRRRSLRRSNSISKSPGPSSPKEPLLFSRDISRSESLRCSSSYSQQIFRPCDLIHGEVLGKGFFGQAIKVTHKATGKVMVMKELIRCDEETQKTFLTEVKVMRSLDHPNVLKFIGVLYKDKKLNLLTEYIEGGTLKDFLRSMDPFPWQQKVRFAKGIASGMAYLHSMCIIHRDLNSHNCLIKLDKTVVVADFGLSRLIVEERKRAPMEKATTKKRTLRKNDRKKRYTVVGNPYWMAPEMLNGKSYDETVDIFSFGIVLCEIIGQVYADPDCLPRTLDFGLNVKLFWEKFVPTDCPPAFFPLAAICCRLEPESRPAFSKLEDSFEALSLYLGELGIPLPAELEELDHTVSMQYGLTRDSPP
UniProt Q12851: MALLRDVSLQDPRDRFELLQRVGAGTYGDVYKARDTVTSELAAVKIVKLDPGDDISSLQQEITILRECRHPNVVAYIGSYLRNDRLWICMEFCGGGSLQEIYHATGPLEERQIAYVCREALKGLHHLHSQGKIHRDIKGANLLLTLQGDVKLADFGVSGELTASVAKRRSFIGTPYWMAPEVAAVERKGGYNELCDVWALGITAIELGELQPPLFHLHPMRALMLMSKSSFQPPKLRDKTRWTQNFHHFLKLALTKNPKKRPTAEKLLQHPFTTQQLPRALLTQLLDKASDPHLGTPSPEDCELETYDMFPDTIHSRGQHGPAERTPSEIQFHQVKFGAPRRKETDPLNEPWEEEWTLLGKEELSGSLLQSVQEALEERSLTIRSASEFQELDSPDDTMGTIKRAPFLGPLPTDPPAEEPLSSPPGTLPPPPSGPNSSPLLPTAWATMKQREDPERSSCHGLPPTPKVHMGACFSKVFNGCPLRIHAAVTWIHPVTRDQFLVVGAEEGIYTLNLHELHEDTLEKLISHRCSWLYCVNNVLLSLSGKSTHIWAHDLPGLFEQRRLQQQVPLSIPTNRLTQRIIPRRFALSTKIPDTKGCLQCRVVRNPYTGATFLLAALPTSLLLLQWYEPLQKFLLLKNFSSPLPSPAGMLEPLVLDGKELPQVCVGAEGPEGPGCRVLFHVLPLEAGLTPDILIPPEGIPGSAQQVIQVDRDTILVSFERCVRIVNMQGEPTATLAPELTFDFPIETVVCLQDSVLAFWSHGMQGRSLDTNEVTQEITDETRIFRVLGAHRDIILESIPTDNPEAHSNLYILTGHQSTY
UniProt P28482, whole entry: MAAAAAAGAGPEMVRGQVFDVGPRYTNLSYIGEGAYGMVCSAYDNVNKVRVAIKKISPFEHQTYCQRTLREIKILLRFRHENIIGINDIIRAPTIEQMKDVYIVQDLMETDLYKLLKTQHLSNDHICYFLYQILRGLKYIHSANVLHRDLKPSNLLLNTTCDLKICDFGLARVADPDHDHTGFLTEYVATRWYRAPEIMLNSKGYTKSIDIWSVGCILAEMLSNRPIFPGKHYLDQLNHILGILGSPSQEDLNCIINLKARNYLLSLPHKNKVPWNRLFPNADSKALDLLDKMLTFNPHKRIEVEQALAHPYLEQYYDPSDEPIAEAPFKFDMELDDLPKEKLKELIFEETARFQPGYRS
UniProt Q9BUB5: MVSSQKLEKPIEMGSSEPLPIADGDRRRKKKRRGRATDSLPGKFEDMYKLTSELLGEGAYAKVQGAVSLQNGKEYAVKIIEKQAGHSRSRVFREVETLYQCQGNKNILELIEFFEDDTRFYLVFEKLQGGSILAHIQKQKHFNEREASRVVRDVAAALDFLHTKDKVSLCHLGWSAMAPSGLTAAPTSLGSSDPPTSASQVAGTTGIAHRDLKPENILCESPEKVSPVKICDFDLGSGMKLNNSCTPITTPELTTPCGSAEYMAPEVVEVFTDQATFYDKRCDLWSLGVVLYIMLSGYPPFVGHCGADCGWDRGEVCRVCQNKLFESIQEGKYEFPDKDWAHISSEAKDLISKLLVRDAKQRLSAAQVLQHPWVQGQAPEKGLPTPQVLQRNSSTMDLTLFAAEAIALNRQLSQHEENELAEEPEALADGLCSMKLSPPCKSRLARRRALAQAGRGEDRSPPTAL
UniProt Q16620, whole entry, looked up: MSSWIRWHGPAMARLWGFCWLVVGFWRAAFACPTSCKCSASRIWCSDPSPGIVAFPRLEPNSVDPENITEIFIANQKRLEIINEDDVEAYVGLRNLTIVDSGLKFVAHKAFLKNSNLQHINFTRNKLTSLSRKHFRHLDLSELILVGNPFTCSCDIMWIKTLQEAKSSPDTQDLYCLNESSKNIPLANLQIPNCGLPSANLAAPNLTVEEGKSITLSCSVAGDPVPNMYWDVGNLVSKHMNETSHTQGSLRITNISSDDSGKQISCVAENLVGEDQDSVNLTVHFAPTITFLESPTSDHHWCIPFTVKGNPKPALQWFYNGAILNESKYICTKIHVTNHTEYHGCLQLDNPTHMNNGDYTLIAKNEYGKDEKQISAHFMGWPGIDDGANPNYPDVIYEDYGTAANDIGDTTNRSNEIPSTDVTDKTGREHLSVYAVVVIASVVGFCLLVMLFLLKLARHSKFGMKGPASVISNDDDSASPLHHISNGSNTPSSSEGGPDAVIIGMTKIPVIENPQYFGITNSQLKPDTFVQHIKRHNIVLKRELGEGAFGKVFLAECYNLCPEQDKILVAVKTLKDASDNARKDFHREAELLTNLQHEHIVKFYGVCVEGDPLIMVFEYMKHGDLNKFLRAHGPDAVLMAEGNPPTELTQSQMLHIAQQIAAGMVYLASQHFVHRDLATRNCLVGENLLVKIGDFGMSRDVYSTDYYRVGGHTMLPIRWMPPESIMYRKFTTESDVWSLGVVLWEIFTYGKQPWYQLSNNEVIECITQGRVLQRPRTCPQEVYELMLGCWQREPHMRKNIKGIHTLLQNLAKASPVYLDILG

Assays:
Experiment in all cases: number of time points (of 5) at which kinase-Nluc abundance scored as decreased, DMSO-normalised (count); higher = more persistent destabilization
Conditions in all cases: K562; 2-18 h
FLT3 = FLT3 (UniProt P36888)
FYN = FYN (UniProt P06241)
GSK3A = GSK3A (UniProt P49840)
HER2 = HER2 (UniProt P04626)
INSRR = INSRR (UniProt P14616)
IRAK3 = IRAK3 (UniProt Q9Y616)
JAK1 = JAK1 (UniProt P23458)
LCK = LCK (UniProt P06239)
LIMK1 = LIMK1 (UniProt P53667)
LIMK2 = LIMK2 (UniProt P53671)
LMTK2 = LMTK2 (UniProt Q8IWU2)
LYN = LYN (UniProt P07948)
MAP2K1 = MAP2K1 (UniProt Q02750)
MAP2K2 = MAP2K2 (UniProt P36507)
MAP4K2 = MAP4K2 (UniProt Q12851)
MAPK1 = MAPK1 (UniProt P28482)
MAPK4 = MAPK4 (UniProt P31152)
MAPKAPK2 = MAPKAPK2 (UniProt P49137)
MKNK1 = MKNK1 (UniProt Q9BUB5)
NTRK2 = NTRK2 (UniProt Q16620)

Structure (SMILES)	number of time points (FLT3)	number of time points (FYN)	number of time points (GSK3A)	number of time points (HER2)	number of time points (INSRR)	number of time points (IRAK3)	number of time points (JAK1)	number of time points (LCK)	number of time points (LIMK1)	number of time points (LIMK2)	number of time points (LMTK2)	number of time points (LYN)	number of time points (MAP2K1)	number of time points (MAP2K2)	number of time points (MAP4K2)	number of time points (MAPK1)	number of time points (MAPK4)	number of time points (MAPKAPK2)	number of time points (MKNK1)	number of time points (NTRK2)
COc1cc2ncnc(-n3nc(-c4ccccn4)nc3N)c2cc1OC (10 µM)	0	0	0	1	0	0	0	0	0	0	0	0	0	0	0	0	0	0	0	0
O=C1NC(=O)/C(=C/c2ccc3nccc(-c4ccncc4)c3c2)S1 (10 µM)	0	0	0	0	0	0	0	0	0	0	0	0	0	0	0	0	0	0	0	0
COc1cc(N(C)CCN(C)C)c(N)cc1Nc1nccc(-c2cn(C)c3ccccc23)n1 [Mutated EGFR-IN-1] (10 µM)	0	1	0	0	0	0	0	0	2	0	0	0	0	0	0	0	0	0	0	0
CNC(=O)c1ccccc1Nc1nc(Nc2ccc3c(c2OC)CCC[C@H](N2CCN(CCO)CC2)C3)ncc1Cl (10 µM)	0	2	0	1	3	3	2	0	4	3	1	1	0	0	0	0	0	0	4	0
C=CC(=O)Nc1cc(-n2c(=O)ccc3cnc4ccc(-c5ccc(NS(C)(=O)=O)cc5)cc4c32)ccc1C (10 µM)	0	0	0	0	0	0	0	0	0	0	0	0	0	0	0	0	0	0	0	0
O=Nc1c2[nH]c3ccccc3nc-2c2ccccc12 [IQ-1S (free acid)] (2.5 µM)	0	0	0	0	0	0	0	0	0	0	0	0	0	0	0	0	0	0	0	0
Nc1ncnc2c1c(COc1cccc(Cl)c1)nn2C1CCOCC1 (10 µM)	0	0	0	0	0	0	0	0	0	0	0	0	0	0	0	0	0	0	0	0
CC(C)=CCc1c(-c2ccc(O)cc2O)oc2c3c(cc(O)c2c1=O)OC(C)(C)C=C3 [Morusin] (2.5 µM)	0	0	0	0	0	0	0	0	0	0	0	0	0	0	0	0	0	0	0	0
CN(C)c1nc2c(Br)c(Br)c(Br)c(Br)c2[nH]1 (10 µM)	0	0	0	0	0	0	0	0	0	0	0	0	0	0	0	0	0	0	0	0
Cc1ccc(-c2csc3ncnc(SCCC(=O)O)c23)cc1 (10 µM)	0	0	0	0	0	0	0	0	0	0	0	0	0	0	0	0	0	0	0	0
NC(=S)n1[nH]c(-c2ccc([N+](=O)[O-])cc2)c(N=Nc2cccc(Cl)c2)c1=O (2.5 µM)	0	0	0	1	0	0	0	0	0	0	0	0	0	0	0	0	0	0	0	0
CCCCCCCC/C=C\CCCCCCCCCCCC(=O)O [Erucic acid] (10 µM)	0	0	0	0	0	0	0	0	0	0	0	0	0	0	0	0	0	0	0	0
O=C1O[C@H]([C@@H](O)CO)C(O)=C1OP(=O)(O)O [2-Phospho-L-ascorbic acid (trisodium)] (10 µM)	0	0	0	0	0	0	0	0	0	0	0	0	0	0	0	0	0	0	0	0
FC(F)(F)c1ccc(/C=C/c2nc(COc3ccc(CCCCn4ccnn4)cc3)co2)cc1 [Mubritinib] (10 µM)	1	0	0	1	0	3	0	0	0	0	1	0	0	0	0	0	0	0	0	0
O=C(O)c1cccc(CN2C(=O)/C(=C(\c3ccccc3)c3ccc(Cl)cc3)c3ccccc32)c1 (2.5 µM)	0	0	0	0	0	0	0	0	0	0	0	0	0	0	0	0	0	0	0	0
C[C@H](Nc1ncnc2nc[nH]c12)c1cc2cccc(Cl)c2c(=O)n1-c1ccccc1 [Duvelisib] (10 µM)	0	0	0	0	0	0	0	0	0	0	0	0	0	0	0	0	0	0	0	0
C=CC(=O)N1C[C@H](COc2nc(Nc3cnn(C)c3)nc3[nH]cc(Cl)c23)[C@@H](OC)C1 (2.5 µM)	0	0	0	0	0	0	0	0	0	0	0	0	0	0	0	0	0	0	0	0

Structure (SMILES)	number of time points (FLT3)	number of time points (FYN)	number of time points (GSK3A)	number of time points (HER2)	number of time points (INSRR)	number of time points (IRAK3)	number of time points (JAK1)	number of time points (LCK)	number of time points (LIMK1)	number of time points (LIMK2)	number of time points (LMTK2)	number of time points (LYN)	number of time points (MAP2K1)	number of time points (MAP2K2)	number of time points (MAP4K2)	number of time points (MAPK1)	number of time points (MAPK4)	number of time points (MAPKAPK2)	number of time points (MKNK1)	number of time points (NTRK2)
COc1c(Nc2cc(C)[nH]n2)nc(Sc2ccc(S(=O)(=O)Cc3cccc([N+](=O)[O-])c3F)cc2F)nc1N1CCCCC1 [Centrinone-B] (2.5 µM)	0	0	0	0	0	0	0	0	0	0	0	0	0	0	0	0	0	0	0	0
CN(C)CCC=C1c2ccccc2CCc2ccccc21 [Amitriptyline (hydrochloride)] (2.5 µM)	0	0	0	0	0	0	0	0	0	0	0	0	0	0	0	0	0	0	0	0
CN(C)S(=O)(=O)c1ccc2c(c1)/C(=C/c1cc3c([nH]1)CCCC3)C(=O)N2 (2.5 µM)	0	2	0	0	4	0	0	2	0	0	0	0	0	0	0	0	0	0	0	0
CC[C@@](C)(Nc1ccnc(-c2c[nH]c3ncccc23)n1)C(=O)NCC(F)(F)F [Decernotinib] (10 µM)	0	0	0	0	0	0	0	0	0	0	0	0	0	0	0	0	0	0	0	0
COc1nn(C)cc1Nc1nccc(-c2c[nH]c3c(NC(=O)[C@@H](C)N4CCN(C)CC4)cccc23)n1 (10 µM)	0	0	0	0	0	0	0	0	0	0	0	0	0	0	0	0	0	0	0	0
O=C(O)c1cc(=O)c2c(OCC(O)COc3cccc4oc(C(=O)O)cc(=O)c34)cccc2o1 [Cromolyn (sodium)] (10 µM)	0	0	0	0	0	0	0	0	0	0	0	0	0	0	0	0	0	0	0	0
NC1=NCCN1CC(=O)O [Cyclocreatine] (10 µM)	0	0	0	0	0	0	0	0	0	0	0	0	0	0	0	0	0	0	0	0
O=C1NC(=Nc2c(Cl)cccc2Cl)S/C1=C\c1ccc2nccnc2c1 (2.5 µM)	0	4	0	0	0	0	0	0	0	4	1	2	0	0	0	0	0	0	0	0
Oc1ccc(/C=C/c2cc(O)cc(F)c2)cc1 [Resveratrol analog 1] (10 µM)	0	0	0	0	0	0	0	0	0	0	0	0	0	0	0	0	0	0	0	0
Nc1cccc(-c2cc3c(Oc4cccc(O)c4)ncnc3[nH]2)c1 (10 µM)	1	0	0	1	2	2	1	0	0	2	0	0	0	0	0	0	0	0	2	0
Nc1nc(N)c2nc(-c3cccc(O)c3)cnc2n1 (10 µM)	0	0	0	0	0	0	0	0	0	0	0	0	0	0	0	0	0	0	0	0
CN1CC[C@@H](c2c(O)cc(O)c3c(=O)cc(-c4ccc(C(F)(F)F)cc4Cl)oc23)[C@@H]1CO [Voruciclib (hydrochloride)] (10 µM)	0	0	0	0	0	0	0	0	0	0	0	0	0	0	0	0	0	0	0	0
Oc1cc(O)c2c(c1)OC1(c3ccc(O)c(O)c3)Oc3cc(O)c4c(c3C2C1O)OC(c1ccc(O)c(O)c1)C(O)C4 (stereo not given) [Procyanidin A1] (10 µM)	0	0	0	0	0	0	0	0	0	0	0	0	0	0	0	0	0	0	0	0
Oc1ccc(/C=C/c2cc(O)cc(O)c2)cc1 [Resveratrol] (10 µM)	0	0	0	0	0	0	0	0	0	0	0	0	0	0	0	0	0	0	0	0
N#Cc1ccnc(Nc2cc(C3CCN(C4COC4)CC3)cc(N3CCC(F)(F)C3)n2)c1 (2.5 µM)	0	0	0	3	0	0	0	0	0	0	0	0	0	0	0	0	0	0	0	0
Nc1nccc(Oc2ccc(NC(=O)c3c[nH]cc(-c4ccc(F)cc4)c3=O)cc2F)c1Cl (10 µM)	3	0	0	5	2	0	3	0	4	4	0	0	0	0	0	0	0	0	4	2

Whole records from above. Order of values: number of time points (FLT3)	number of time points (FYN)	number of time points (GSK3A)	number of time points (HER2)	number of time points (INSRR)	number of time points (IRAK3)	number of time points (JAK1)	number of time points (LCK)	number of time points (LIMK1)	number of time points (LIMK2)	number of time points (LMTK2)	number of time points (LYN)	number of time points (MAP2K1)	number of time points (MAP2K2)	number of time points (MAP4K2)	number of time points (MAPK1)	number of time points (MAPK4)	number of time points (MAPKAPK2)	number of time points (MKNK1)	number of time points (NTRK2)
`O=C1NC(=Nc2c(Cl)cccc2Cl)S/C1=C\c1ccc2nccnc2c1` (2.5 µM) is listed as 0	4	0	0	0	0	0	0	0	4	1	2	0	0	0	0	0	0	0	0
`O=C(O)c1cc(=O)c2c(OCC(O)COc3cccc4oc(C(=O)O)cc(=O)c34)cccc2o1` [Cromolyn (sodium)] (10 µM) is listed as 0	0	0	0	0	0	0	0	0	0	0	0	0	0	0	0	0	0	0	0
